Protein sequences, listed by entry. Tags and fused reporters are not part of them. Lines headed by an entry give the natural chain unless they say otherwise; changes in a name come on top.
UniProt Q385I5: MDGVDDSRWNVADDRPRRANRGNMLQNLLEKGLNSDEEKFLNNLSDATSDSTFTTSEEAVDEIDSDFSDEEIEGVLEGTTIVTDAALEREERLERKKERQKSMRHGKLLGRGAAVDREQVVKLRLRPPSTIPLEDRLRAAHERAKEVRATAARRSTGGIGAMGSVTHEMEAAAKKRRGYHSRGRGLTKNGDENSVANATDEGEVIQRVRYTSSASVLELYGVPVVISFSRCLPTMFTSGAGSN
UniProt Q583J3: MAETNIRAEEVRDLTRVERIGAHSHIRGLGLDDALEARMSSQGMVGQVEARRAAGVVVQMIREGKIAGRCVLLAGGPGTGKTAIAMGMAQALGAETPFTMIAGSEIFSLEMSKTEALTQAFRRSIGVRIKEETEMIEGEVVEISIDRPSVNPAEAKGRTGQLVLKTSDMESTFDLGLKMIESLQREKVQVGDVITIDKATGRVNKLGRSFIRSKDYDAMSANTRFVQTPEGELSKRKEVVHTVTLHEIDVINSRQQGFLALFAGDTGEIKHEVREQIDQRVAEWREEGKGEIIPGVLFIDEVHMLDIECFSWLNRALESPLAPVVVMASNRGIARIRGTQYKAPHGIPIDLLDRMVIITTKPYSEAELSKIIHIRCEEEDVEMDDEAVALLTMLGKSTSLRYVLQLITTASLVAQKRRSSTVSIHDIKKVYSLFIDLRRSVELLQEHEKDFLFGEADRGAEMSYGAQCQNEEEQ
UniProt Q580C6: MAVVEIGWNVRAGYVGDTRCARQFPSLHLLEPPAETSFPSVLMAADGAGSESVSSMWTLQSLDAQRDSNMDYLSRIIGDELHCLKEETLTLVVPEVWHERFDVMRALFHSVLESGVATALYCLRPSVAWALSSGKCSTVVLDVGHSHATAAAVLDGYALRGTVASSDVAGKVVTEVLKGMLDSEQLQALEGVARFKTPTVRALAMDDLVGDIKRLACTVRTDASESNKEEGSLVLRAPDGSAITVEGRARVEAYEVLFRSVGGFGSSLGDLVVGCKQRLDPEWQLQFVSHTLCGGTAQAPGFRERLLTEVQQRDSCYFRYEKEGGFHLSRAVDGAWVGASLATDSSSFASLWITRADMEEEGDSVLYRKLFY
UniProt Q383S2: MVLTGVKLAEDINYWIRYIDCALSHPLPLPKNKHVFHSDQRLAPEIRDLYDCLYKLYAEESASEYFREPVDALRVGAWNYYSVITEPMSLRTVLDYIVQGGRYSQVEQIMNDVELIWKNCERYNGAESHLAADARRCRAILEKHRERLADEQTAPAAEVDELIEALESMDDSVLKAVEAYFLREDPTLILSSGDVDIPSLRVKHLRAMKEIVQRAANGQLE
UniProt D6XIY7: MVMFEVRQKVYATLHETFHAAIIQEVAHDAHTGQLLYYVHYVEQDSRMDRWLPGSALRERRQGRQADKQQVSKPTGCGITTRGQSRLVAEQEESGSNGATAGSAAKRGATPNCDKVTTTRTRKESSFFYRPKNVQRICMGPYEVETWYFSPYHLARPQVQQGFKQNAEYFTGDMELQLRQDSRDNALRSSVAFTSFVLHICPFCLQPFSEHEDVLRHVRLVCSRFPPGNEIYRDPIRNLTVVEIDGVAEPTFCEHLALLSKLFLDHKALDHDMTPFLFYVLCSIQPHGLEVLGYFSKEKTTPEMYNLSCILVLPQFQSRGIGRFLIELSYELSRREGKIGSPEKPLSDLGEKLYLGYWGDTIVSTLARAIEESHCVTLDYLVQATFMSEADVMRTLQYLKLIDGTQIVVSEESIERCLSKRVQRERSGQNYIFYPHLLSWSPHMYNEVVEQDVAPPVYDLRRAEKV
UniProt Q38AD3: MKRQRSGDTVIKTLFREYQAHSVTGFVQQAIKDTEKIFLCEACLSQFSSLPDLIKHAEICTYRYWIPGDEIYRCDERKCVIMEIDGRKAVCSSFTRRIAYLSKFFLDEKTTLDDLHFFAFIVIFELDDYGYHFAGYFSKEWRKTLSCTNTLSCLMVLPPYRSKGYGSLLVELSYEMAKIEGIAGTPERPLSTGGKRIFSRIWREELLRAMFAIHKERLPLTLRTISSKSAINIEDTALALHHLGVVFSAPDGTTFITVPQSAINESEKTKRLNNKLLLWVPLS
UniProt Q585C3: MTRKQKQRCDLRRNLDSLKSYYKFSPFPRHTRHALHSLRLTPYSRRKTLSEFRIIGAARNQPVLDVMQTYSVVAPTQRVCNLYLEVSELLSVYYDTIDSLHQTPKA
UniProt Q57ZF8: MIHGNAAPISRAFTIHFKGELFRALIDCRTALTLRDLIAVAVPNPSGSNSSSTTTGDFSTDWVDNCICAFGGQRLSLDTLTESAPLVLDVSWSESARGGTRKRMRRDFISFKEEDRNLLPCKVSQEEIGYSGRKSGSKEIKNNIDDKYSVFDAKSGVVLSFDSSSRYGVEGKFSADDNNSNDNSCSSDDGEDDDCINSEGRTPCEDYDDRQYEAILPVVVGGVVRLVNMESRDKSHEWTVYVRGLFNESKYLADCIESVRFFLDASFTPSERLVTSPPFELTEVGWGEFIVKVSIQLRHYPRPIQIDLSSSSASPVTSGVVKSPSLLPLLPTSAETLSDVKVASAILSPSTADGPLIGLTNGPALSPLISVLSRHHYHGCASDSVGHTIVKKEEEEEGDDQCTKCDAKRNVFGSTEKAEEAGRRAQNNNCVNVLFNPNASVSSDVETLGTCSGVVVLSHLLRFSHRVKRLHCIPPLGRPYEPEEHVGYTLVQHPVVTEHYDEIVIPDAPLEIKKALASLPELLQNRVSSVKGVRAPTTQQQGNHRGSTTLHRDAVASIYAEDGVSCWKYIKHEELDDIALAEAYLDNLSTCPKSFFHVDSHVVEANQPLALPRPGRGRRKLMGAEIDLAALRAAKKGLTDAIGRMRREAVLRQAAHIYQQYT
UniProt Q389Y3: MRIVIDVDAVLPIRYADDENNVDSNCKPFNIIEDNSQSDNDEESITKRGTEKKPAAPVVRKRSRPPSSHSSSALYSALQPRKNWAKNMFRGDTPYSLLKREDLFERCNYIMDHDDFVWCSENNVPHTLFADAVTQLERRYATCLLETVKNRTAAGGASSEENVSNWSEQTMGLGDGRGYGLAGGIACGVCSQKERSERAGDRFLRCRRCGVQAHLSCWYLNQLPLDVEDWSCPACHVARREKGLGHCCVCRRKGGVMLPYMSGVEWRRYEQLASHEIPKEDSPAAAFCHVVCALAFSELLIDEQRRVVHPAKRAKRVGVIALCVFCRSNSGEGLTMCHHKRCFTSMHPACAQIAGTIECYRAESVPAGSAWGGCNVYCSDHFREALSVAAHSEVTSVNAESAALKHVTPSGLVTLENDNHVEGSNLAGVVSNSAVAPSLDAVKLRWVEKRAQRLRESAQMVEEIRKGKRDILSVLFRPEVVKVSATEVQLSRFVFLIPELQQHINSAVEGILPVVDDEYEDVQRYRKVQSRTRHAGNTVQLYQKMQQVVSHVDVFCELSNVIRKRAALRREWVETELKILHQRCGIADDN
UniProt Q388I3: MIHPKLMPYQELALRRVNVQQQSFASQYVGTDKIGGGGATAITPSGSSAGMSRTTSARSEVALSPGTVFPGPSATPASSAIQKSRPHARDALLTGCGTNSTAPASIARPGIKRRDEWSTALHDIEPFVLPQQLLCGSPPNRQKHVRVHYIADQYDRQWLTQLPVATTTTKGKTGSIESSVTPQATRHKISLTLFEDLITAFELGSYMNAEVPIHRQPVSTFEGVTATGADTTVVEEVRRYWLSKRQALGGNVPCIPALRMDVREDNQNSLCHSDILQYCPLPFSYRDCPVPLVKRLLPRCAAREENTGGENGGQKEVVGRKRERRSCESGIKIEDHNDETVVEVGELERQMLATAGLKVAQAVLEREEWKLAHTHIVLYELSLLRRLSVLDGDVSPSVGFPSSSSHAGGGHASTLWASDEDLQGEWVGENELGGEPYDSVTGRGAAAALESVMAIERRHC
UniProt Q57ZL0: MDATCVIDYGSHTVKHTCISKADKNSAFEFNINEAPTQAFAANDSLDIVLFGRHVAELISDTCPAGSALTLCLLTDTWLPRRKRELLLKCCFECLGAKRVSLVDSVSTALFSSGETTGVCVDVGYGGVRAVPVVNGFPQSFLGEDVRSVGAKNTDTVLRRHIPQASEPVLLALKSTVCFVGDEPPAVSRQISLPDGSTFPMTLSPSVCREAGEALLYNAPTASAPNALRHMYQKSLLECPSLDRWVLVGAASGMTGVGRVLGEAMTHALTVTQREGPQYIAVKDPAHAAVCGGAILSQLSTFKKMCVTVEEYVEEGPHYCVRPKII
UniProt Q38C43: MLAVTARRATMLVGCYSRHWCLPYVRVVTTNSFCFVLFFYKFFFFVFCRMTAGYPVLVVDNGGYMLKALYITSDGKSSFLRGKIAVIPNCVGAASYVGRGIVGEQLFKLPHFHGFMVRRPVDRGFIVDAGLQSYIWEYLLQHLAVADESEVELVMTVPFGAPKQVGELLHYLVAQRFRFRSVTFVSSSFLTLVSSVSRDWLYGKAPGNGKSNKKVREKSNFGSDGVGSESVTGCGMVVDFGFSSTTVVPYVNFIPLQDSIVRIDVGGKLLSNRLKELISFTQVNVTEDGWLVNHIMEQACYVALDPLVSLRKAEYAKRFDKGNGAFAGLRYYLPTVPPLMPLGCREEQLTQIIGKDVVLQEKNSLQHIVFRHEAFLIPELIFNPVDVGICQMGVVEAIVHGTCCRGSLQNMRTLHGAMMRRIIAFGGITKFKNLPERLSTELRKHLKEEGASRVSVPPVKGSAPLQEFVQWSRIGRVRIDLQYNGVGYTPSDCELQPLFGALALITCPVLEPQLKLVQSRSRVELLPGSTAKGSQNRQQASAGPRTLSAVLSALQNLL
UniProt Q383K6: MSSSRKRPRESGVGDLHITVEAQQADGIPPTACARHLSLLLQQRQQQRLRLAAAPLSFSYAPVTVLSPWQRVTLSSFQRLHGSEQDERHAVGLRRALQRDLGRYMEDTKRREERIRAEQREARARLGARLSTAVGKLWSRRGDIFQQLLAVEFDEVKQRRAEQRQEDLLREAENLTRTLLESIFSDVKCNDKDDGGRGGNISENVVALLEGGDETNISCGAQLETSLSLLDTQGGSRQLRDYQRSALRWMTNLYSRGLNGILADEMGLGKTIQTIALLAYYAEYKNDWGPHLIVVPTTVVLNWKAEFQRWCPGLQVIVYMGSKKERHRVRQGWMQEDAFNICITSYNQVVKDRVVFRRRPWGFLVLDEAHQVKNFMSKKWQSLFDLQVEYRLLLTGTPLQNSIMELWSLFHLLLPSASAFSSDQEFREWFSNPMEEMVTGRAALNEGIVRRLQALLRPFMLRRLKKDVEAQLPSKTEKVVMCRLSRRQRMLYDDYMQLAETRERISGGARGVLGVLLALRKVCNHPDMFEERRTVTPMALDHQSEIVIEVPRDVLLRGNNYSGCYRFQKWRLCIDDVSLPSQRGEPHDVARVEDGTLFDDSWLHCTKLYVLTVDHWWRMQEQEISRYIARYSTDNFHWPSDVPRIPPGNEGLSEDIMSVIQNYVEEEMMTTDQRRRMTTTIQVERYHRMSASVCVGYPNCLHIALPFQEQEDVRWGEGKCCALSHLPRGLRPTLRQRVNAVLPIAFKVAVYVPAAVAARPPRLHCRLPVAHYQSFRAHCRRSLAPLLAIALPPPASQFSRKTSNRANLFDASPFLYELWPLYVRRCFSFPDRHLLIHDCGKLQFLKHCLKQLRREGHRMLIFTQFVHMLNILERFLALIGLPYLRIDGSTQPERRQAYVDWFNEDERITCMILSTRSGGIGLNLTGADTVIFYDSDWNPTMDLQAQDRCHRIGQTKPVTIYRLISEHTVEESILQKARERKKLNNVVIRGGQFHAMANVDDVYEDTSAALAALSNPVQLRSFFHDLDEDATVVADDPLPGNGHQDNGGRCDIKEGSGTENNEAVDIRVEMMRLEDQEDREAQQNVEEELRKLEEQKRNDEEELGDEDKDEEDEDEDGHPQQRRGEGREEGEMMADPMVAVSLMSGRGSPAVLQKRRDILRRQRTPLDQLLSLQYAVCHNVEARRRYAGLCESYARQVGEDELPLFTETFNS
UniProt Q57YH0: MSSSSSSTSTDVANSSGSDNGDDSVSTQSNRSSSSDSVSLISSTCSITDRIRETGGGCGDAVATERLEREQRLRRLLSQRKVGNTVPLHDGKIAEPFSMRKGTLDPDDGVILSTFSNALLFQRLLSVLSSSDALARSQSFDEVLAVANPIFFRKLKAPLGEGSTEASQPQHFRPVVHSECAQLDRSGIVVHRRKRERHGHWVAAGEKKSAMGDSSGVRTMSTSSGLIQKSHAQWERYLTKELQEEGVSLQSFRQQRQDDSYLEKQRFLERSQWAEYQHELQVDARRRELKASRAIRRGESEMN
UniProt Q385E0: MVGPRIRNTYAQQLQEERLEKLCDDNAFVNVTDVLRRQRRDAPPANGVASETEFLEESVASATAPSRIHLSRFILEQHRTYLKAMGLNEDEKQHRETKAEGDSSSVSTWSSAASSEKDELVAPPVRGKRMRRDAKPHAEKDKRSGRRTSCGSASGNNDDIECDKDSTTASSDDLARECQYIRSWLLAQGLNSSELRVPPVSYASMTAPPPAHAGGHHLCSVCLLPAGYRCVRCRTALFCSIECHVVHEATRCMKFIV

In paper PMC9236257:

T1: tagged Tb927.1.650 (Eaf3/MORF4 homologue), bait of the reciprocal co-IP (Trypanosoma brucei) (UniProt Q4GZG2)
T1 sequence: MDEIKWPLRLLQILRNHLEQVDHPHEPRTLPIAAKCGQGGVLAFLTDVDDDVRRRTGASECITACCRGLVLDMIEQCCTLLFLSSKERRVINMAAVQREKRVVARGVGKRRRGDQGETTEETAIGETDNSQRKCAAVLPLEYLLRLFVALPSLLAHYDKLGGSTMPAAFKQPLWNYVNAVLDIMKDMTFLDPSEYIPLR

B1: Tb927.1.650 (an Eaf3/MORF4 homologue) (protein, UniProt Q4GZG2 1-199)
chain: MDEIKWPLRLLQILRNHLEQVDHPHEPRTLPIAAKCGQGGVLAFLTDVDDDVRRRTGASECITACCRGLVLDMIEQCCTLLFLSSKERRVINMAAVQREKRVVARGVGKRRRGDQGETTEETAIGETDNSQRKCAAVLPLEYLLRLFVALPSLLAHYDKLGGSTMPAAFKQPLWNYVNAVLDIMKDMTFLDPSEYIPLR

Assays:
Assay in all cases: affinity purification with mass spectrometry; soluble fraction of 1x10^8 sonicated T. brucei cells with the tagged bait in IP buffer (150 mM NaCl, 0.5% IGEPAL CA-630, 20 mM Tris-HCl pH 8.0, 10 mM MgCl2, 1 mM DTT) on Protein G Sepharose beads coupled to anti-HA 12CA5 or anti-Ty1 BB2, 3 h at 4°C; eluates by label-free quantitative MS, four biological replicates against a WT control
[1] = target: HA-TbSWRC2 (Tb927.11.5830) (Trypanosoma brucei) (UniProt Q385I5)
[2] = target: TbSWRC4-HA (Tb927.7.4040) (Trypanosoma brucei) (UniProt Q57UN4)
[3] = target: HA-HAT2 (Tb927.11.11530) (Trypanosoma brucei) (UniProt Q383C5)
[4] = target: tagged Tb927.9.2910 (annotated as a NuA4 subunit), bait of the co-IP (Trypanosoma brucei) (UniProt Q38FN2)
[5] = target: T1, tagged Tb927.1.650 (Eaf3/MORF4 homologue), bait of the reciprocal co-IP (Trypanosoma brucei)
[6] = target: HA-tagged RuvB2 (Tb927.4.2000) (Trypanosoma brucei) (UniProt Q583J3)
[7] = target: tagged Tb927.9.2910 (annotated as a NuA4 subunit), bait of the co-IP (Trypanosoma brucei) (UniProt Q38FN2); remark: listed apart in the source

Molecule	binding [1]	binding [2]	binding [4]	binding [5]	binding [6]	also measured
Actin (Tb927.4.980) (from UniProt Q580C6)	binds	binds				
Bdf3 (Tb927.11.10070) (from UniProt Q383S2)						binding [3]: binds
HAT1 (Tb927.7.4560) (from UniProt D6XIY7) (enzyme)			binds	binds		
HAT3 (from UniProt Q38AD3) (enzyme)			binds	no binding		
RuvB1 (Tb927.4.1270) (from UniProt Q581V4)	binds	binds				
Tb927.3.4140 (from UniProt Q580M8)						binding [3]: binds
Tb927.6.1240 (from UniProt Q585C3)			binds	no binding		
Tb927.7.5310 (a Yaf9/GAS41 homologue) (from UniProt Q57ZF8)			binds	binds		
Tb927.10.9930 (from UniProt Q389Y3)			binds	no binding		
Tb927.10.14190 (a homologue of Epl1) (from UniProt Q388I3)			binds	binds		
TbARP1 (Tb927.3.3020) (from UniProt Q57ZL0)	binds	binds			binds	
TbARP2 (Tb927.6.2570) (from UniProt Q584P9)	binds	binds			binds	
TbARP3 (Tb927.10.2000) (from UniProt Q38C43)	binds	binds			binds	
TbSWR1 (Tb927.11.10730) (from UniProt Q383K6) (enzyme)	binds	binds			binds	
TbSWRC2 (Tb927.11.5830) (from UniProt Q385I5)		binds			binds	
TbSWRC3 (Tb927.9.8510) (from UniProt Q38EC0)	binds	binds				
TbSWRC4 (Tb927.7.4040) (from UniProt Q57UN4)	binds				binds	
TbSWRC5 (Tb927.8.600) (from UniProt Q57YH0)	binds	binds			binds	
TbSWRC6 (Tb927.11.6290) (from UniProt Q385E0)	binds	binds			binds	
B1						binding [7]: binds

Read-outs that look alike come from different tables or passages of the source. These are yes or no findings as the source states them, for the method shown. Binding seen in cells or lysates may run through a third protein. Here binding means that the protein was enriched with, or labelled near, the bait; the list need not be complete. For some of these results: No binding means not detected with the bait. For some of these results: Where a sequence is shown, tags or fusion partners need not be part of it.
